This note sets out measurements from publication PMC12609382.

By UniProt entry, the sequences of proteins in these tests, tags left out. Residues count along the entry.
GST-PRDM16-224-454 (zinc finger domain 1 of PRDM16) (A2A935, residues 224-454): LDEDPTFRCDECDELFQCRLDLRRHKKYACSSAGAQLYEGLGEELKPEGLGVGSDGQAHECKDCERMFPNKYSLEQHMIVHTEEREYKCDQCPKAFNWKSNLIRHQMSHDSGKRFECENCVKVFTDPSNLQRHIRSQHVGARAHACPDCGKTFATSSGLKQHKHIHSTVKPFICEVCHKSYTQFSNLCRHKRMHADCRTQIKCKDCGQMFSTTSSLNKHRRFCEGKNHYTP
GST-PRDM16-881-1038 (zinc finger domain 2 of PRDM16) (A2A935, residues 881-1038): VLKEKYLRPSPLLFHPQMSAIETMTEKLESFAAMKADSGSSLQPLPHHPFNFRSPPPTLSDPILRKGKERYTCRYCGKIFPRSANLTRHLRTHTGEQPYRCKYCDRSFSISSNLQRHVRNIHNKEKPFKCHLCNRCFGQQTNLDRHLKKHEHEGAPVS

For assay [1], the target named is GST-PRDM16-224-454 (zinc finger domain 1 of PRDM16) (UniProt A2A935). The assay can be described thus: pull-down; GST-PRDM16 fragments on glutathione beads as bait; pre-cleared lysates of HEK293 cells expressing nuclear SREBPs (wild type or deletion mutants) as prey; 1 h at 4 °C; washes in buffer A and once in 0.5 M NaCl; Western blot; only the target purified. For orientation: In western blotting, separated proteins are transferred to a membrane and probed.

Assay [2] deals with GST-PRDM16-881-1038 (zinc finger domain 2 of PRDM16) (UniProt A2A935). The description is as above.

Results are given in words; binding and its absence hold for the method and conditions named. Binding seen in cells or lysates may run through a third protein. Some binding calls cover weakened binding; strength is not graded here. Where a sequence is shown, tags or fusion partners need not be part of it.

B1: FLAG-SREBP1a-ΔTAD (nuclear SREBP1a without the N-terminal transactivation domain) (domain or fragment, UniProt P36956-1 90-490)
chain: PQAAPSPLSPPQPAPTPLKMYPSMPAFSPGPGIKEESVPLSILQTPTPQPLPGALLPQSFPAPAPPQFSSTPVLGYPSPPGGFSTGSPPGNTQQPLPGLPLASPPGVPPVSLHTQVQSVVPQQLLTVTAAPTAAPVTTTVTSQIQQVPVLLQPHFIKADSLLLTAMKTDGATVKAAGLSPLVSGTTVQTGPLPTLVSGGTILATVPLVVDAEKLPINRLAAGSKAPASAQSRGEKRTAHNAIEKRYRSSINDKIIELKDLVVGTEAKLNKSAVLRKAIDYIRFLQHSNQKLKQENLSLRTAVHKSKSLKDLVSACGSGGNTDVLMEGVKTEVEDTLTPPPSDAGSPFQSSPLSLGSRGSGSGGSGSDSEPDSPVFEDSKAKPEQRPSLHSRGMLDRSRLAL
For the molecule B1, the binding result in assay [1] and in assay [2] was “binds” throughout.

B2: FLAG-SREBP1a-ΔC (nuclear SREBP1a without the C-terminal regulatory domain) (domain or fragment, UniProt P36956-1 2-417)
chain: DEPPFSEAALEQALGEPCDLDAALLTDIEDMLQLINNQDSDFPGLFDPPYAGSGAGGTDPASPDTSSPGSLSPPPATLSSSLEAFLSGPQAAPSPLSPPQPAPTPLKMYPSMPAFSPGPGIKEESVPLSILQTPTPQPLPGALLPQSFPAPAPPQFSSTPVLGYPSPPGGFSTGSPPGNTQQPLPGLPLASPPGVPPVSLHTQVQSVVPQQLLTVTAAPTAAPVTTTVTSQIQQVPVLLQPHFIKADSLLLTAMKTDGATVKAAGLSPLVSGTTVQTGPLPTLVSGGTILATVPLVVDAEKLPINRLAAGSKAPASAQSRGEKRTAHNAIEKRYRSSINDKIIELKDLVVGTEAKLNKSAVLRKAIDYIRFLQHSNQKLKQENLSLRTAVHKSKSLKDLVSACGSGGNTDVLMEGV
With B2, the binding entry in assay [1] and in assay [2] was “binds” throughout.
